Experimental data reported in PMC5144080.
Results are given in words; binding and its absence hold for the method and conditions named. Binding seen in cells or lysates may run through a third protein. Some results given as binding are weak or reduced against the parent protein; the word gives no strength. Each block holds one substance with its values, some of them ahead of it.

Chains of the proteins cited; added tags and fusions are not shown.
UniProt P49841: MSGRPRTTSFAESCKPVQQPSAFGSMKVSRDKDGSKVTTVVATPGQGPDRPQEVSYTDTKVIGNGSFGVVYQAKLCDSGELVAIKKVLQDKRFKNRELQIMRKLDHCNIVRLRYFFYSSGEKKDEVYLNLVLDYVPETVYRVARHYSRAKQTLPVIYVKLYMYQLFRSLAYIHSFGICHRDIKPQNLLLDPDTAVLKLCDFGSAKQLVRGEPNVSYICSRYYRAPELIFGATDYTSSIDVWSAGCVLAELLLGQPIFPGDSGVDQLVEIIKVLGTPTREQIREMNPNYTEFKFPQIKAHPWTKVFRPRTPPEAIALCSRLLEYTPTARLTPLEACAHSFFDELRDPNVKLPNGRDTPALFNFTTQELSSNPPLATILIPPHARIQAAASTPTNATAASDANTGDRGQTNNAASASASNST
UniProt Q9Y6K9: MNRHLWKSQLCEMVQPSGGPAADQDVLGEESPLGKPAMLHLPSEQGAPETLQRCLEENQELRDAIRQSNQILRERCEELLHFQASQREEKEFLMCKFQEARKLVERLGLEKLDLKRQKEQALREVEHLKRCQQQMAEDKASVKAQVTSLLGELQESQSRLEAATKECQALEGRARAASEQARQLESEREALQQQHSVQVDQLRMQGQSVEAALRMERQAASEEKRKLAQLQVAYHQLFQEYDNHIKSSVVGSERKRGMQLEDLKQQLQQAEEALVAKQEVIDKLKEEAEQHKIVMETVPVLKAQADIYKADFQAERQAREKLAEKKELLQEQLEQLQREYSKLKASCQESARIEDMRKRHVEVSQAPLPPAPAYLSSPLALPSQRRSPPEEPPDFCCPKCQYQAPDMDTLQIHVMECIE

Tests used:
[1] = target: glycogen synthase kinase-3β (GSK-3β), endogenous (human (endogenous in HEK293)) (UniProt P49841); test: co-IP; immune-precipitation of endogenous GSK-3β from lysates of HEK293 cells, untreated or stimulated with TNFα (10 ng/ml) for 30 min; immune complexes blotted for NEMO and GSK-3β
[2] = target: GFP-tagged wild-type NEMO (human) (UniProt Q9Y6K9); test: co-IP; HEK293 cells transfected with GFP-tagged wild-type or S8, 17, 31A NEMO; anti-GFP immunoprecipitation (GFP Isolation Kit, Miltenyi); resting or TNFα-stimulated (10 ng/ml) cells; for p47, co-transfected with HA-tagged ubiquitin species; immunoblotting
[3] = target: NF-κB Essential Modifier (NEMO/IKKγ), endogenous (human (endogenous in HEK293)) (UniProt Q9Y6K9); test: co-IP; lysates immunoprecipitated with anti-NEMO and blotted with anti-NEMO, anti-IKKβ and anti-GSK-3β; cells pretreated for 2 h with SB216763 (1 μM) or not, then stimulated with TNFα (10 ng/ml) for 1 h
[4] = target: NEMO-TagRFP (human) (UniProt Q9Y6K9); test: FRET or BRET; FLIM-FRET on a widefield FLIM set-up (Supplementary Figure 1b)
[5] = target: GST-fused NEMO, full length (human) (UniProt Q9Y6K9); test: pull-down; GST-fused NEMO or its deletion mutants mixed with cell lysates containing GSK-3β; overnight incubation; GST-NEMO eluted from the resin; GSK-3β in the eluate detected by immune blotting; only the target purified

binding [1]: binds
Substance: NF-κB Essential Modifier (NEMO/IKKγ), endogenous (from UniProt Q9Y6K9 1-419)

binding [2]: binds | binding [3]: binds
Substance: glycogen synthase kinase-3β (GSK-3β), endogenous (from UniProt P49841 1-420) (enzyme)

binding [4]: binds
Substance: GFP-GSK-3β (from UniProt P49841 1-420) (enzyme)

binding [5]: binds
Substance: GSK-3β in cell lysates (GST pull-down) (from UniProt P49841 1-420) (enzyme)
